Reference: patent publication US20130251724A1

Biological target: Marmoset OSM (marmoset)
Assay: Kinexa solution phase affinity

B1: 15E10h, non-competitive anti-OSM humanised antibody (antibody, human IgG1, kappa, V domains shown)
VH: QVQLVESGGGVVQPGRSLRLSCAASGFSLTNYGVHWVRQAPGKGLEWVAVIWRGGSTDYNAAFMSRFTISKDNSKNTLYLQMNSLRAEDTAVYYCAKSPNSNFYWYFDVWGRGTLVTVSS
VL: EIVLTQSPATLSLSPGERATLSCSGSSSVSYMYWYQQKPGQAPRLLIEDTSNLASGIPARFSGSGSGTDYTLTISNLEPEDFAVYYCQQWSSYPPTFGQGTKLEIKR
- binding: binds

No constants are given. Whether binding was seen depends on the method and setting. Binding can be weak; no strength is given.
